Construct, isoform or probe ends are uncertain for at least one entry.
Target: cardiac troponin I (cTnI) (UniProt P19429)
Test: binding assay
Details: value from ref 33, aptamer used here as receptor on SOI-biosensor; Aptamer folded in 0.15 M NaCl, 50 mM K-Na phosphate pH 7.0, 1 mM MgCl2 (90 C 5 min, then room temperature 15 min); single-stranded DNA

How did the Kd turn out when “GGAAGACAAGACATCGGGAGGGAGGGAGGGCAGTCTAGTCTCATGTGTTTCCATGGTTC [TnAp12t2]” was run?
Its Kd is 6 nM.

From paper PMC11482093
